Reference: patent US6159700A, “Method of finding agonist and antagonist to human and rat GPR14” (SmithKline Beecham Corporation, priority 1999, dated 2000)
At least one structure is not confirmed: it was looked up by name or label, or the drawing left a doubt. Bridge positions count the residues as written; N and C are the ends. Peptide text beside a SMILES is read from it.

Legend:
[1] = molecular target: T1, rat GPR14 (Rattus norvegicus, UniProt P49684); experiment: Urotensin II-induced Ca2+ mobilization in transient HEK 293 GPR14 cells (FLIPR); assay type: cell-based; set-up: expressed in transfected cells; host or cells: HEK 293 cells, transient transfection, together with G alpha-16; settings: transiently transfected HEK 293, rat receptor, + G alpha-16, FLIPR; read-out: EC50 calcium response
T1 sequence (P49684 1-386): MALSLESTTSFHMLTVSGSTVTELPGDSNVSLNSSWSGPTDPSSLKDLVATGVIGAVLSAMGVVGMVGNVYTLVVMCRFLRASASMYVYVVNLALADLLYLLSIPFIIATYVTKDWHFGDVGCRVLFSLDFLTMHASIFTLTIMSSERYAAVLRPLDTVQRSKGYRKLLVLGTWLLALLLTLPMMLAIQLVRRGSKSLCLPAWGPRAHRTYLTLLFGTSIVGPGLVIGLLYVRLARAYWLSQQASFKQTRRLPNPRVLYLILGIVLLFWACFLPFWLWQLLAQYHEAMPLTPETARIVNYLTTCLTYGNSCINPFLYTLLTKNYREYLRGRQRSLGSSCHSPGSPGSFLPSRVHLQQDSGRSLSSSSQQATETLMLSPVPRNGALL

[2] = molecular target: T2, Human GPR14 (Homo sapiens, UniProt Q9UKP6); experiment: as above; assay type: cell-based; settings: transiently transfected HEK 293, human receptor, + G alpha-16, FLIPR; read-out: EC50 calcium response
T2 construct: expressed in transfected cells; host or cells: HEK 293 cells, transient transfection, together with G alpha-16
T2 sequence (Q9UKP6 1-389): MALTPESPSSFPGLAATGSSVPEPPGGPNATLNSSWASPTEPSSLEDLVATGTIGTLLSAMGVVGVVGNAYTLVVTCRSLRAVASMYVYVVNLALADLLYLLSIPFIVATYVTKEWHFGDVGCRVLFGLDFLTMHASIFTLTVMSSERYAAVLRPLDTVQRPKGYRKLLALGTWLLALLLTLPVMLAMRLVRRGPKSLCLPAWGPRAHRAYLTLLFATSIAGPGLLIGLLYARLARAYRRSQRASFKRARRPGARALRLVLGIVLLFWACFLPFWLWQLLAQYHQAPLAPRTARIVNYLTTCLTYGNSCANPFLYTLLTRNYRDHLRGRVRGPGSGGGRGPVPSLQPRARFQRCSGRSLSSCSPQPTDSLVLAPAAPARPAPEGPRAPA

CC(C)[C@H](NC(=O)[C@@H]1CSSC[C@H](NC(=O)[C@H](CC(=O)O)NC(=O)[C@H](C)NC(=O)[C@@H](NC(=O)CNC(=O)[C@H](C)N)[C@@H](C)O)C(=O)N[C@@H](Cc2ccccc2)C(=O)N[C@@H](Cc2c[nH]c3ccccc23)C(=O)N[C@@H](CCCCN)C(=O)N[C@@H](Cc2ccc(O)cc2)C(=O)N1)C(=O)O [fish urotensin II] (H-AGTADCFWKYCV-OH; disulfide 6-11)
EC50 [1]: 0.8 nM
EC50 [2]: 0.5 nM
